Assay results taken from PubChem BioAssay AID624291 (National Center for Advancing Translational Sciences (NCATS), 2012).
Out of some 350,000 compounds screened, about 220 (0.063%) were called active. Inconclusive results, whose numbers are uncertain, are shown with a selection of clear calls. The call rests on the fitted dose curve; in most records, active means well fitted activation curve with a large enough effect; inconclusive means small, poorly fitted or top-dose-only effect; inactive means no such curve, though single readings can be large or run the other way. A potency beside an inconclusive call is a rough fit, not a confirmed value.

Assay: qHTS for Activators of Integrin-Mediated Alleviation for Muscular Dystrophy; further: nearly all actives have a fitted effect of over 60% in size;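 on activation: 100% = response of the positive control SU9516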
Details: alpha7betagal myoblasts, beta-gal FDG fluorescence, 48 h; activation: at 38.3 µM (top of the series)
Summary of the method: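 Alpha7betagal+/- myoblasts (passage 13) were plated 16-24 hr, then exposed to compounds (1:260 dilution of DMSO stock) for 48 hours at 37C. After MPER lysis, β-galactosidase reporter activity was read as FDG fluorescence (ex 480/em 540) after 30 minutes.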
Potency means the concentration at half of the fitted maximal effect.

| Compound | Potency | activation |
| --- | --- | --- |
| COc1ccc(Nc2nnc(-c3ccncc3)s2)cc1Cl | inconclusive: 22.4 µM [activator, single point] | – |
| Cc1ccnc(NS(=O)(=O)c2cnc(Cl)c(Br)c2)c1 | – | inactive: -19% |
| CCn1cc(S(=O)(=O)Nc2cccnc2)cn1 | inconclusive: 5.01 µM [activator, single point] | – |
| CSc1ccccc1NC(=O)CN(C)C(=O)c1ccc(-n2cccn2)cc1 | inconclusive: 2.82 µM [activator, single point] | – |
| CCNC(=S)N1CCC(Cc2ccccc2)CC1 | inconclusive: 5.01 µM [activator, single point] | – |
| c1ccc(CSc2cc3ccccc3[nH]2)cc1 | inconclusive: 5.62 µM [activator, partial curve, poor fit] | – |
| O=C1CC(=O)N2CCSC2=N1 | inconclusive: 5.01 µM [activator, full curve] | – |
| O=C(NCC(=O)N(c1cccc(F)c1)C(C(=O)NC1CCCC1)c1ccncc1)c1cccs1 (centres undefined) | inconclusive: 2 µM [activator, full curve, poor fit] | – |
| N#C/C(=C(/O)COc1ccc(Br)cc1)c1nnc2n1CCCCC2 | inconclusive: 6.31 µM [activator, full curve, poor fit] | – |
| COCCCNC(=O)C1CC(=O)N(C2CCCC2)C1 (centres undefined) | inconclusive: 11.2 µM [activator, partial curve, poor fit] | – |
| Cc1cc(F)c(F)c(C(=O)N2CCN(C)CC2)c1Cl | – | inactive: 20.2% |
| N#Cc1ccc(CSc2nc(N)cc(N)n2)cc1 | – | inactive: -21.6% |
| Cc1ccc(NC(=O)CNc2cc(S(=O)(=O)N3CCOCC3)ccc2N2CCOCC2)cc1S(=O)(=O)N(C)C | inconclusive: 5.01 µM [activator, single point] | – |
| CCN(Cc1ccncc1)C(=O)c1ccccc1NS(=O)(=O)c1ccc(Br)cc1 | inconclusive: 3.55 µM [activator, partial curve, poor fit] | – |
| CCc1nc(N2CCN(C(=O)c3ccco3)CC2)c(C#N)c2c1COC(C)(C)C2 | inconclusive: 3.16 µM [activator, single point] | – |
| CC(C)(C)c1ccc(O)c(/C=N\O)c1 | – | inactive: -4.23% |
| CC(C)c1ccc(Nc2nc(Cl)nc(NCCO)n2)cc1 | inconclusive: 0.891 µM [activator, partial curve, poor fit] | – |
| CC12CN3CC(C)(CN(C1)C3c1ccccc1)C2O (centres undefined) | inconclusive: 28.2 µM [activator, single point] | – |
| O=C(NNC(=O)c1cccs1)c1cccc(F)c1 | inconclusive: 12.6 µM [activator, single point] | – |
| COc1ccc(S(=O)(=O)NCC(c2ccc3c(c2)OCO3)N2CCN(c3ccccc3)CC2)cc1 (centres undefined) | inconclusive: 11.2 µM [activator, partial curve, poor fit] | – |
| N=c1c2cn[nH]c2nc(SCC(=O)c2ccc(Br)cc2)n1-c1ccc(Br)cc1 | inconclusive: 0.316 µM [activator, full curve, poor fit] | – |
| COc1ccc(CCNC(=O)c2ccc3c(SCC(=O)O)c4c(nc3c2)CCCC4)cc1OC | inconclusive: 28.2 µM [activator, single point] | – |
| CCc1ccccc1NC(=O)c1cccc(NC(=O)/C=C/c2ccco2)c1 | – | inactive: -5.18% |

Given with each value named: part of the list above
O=C(NCC(=O)N(c1cccc(F)c1)C(C(=O)NC1CCCC1)c1ccncc1)c1cccs1 (centres undefined)
  Potency: inconclusive: 2 µM [activator, full curve, poor fit]
Cc1cc(F)c(F)c(C(=O)N2CCN(C)CC2)c1Cl
  activation: inactive: 20.2%
CCc1nc(N2CCN(C(=O)c3ccco3)CC2)c(C#N)c2c1COC(C)(C)C2
  Potency: inconclusive: 3.16 µM [activator, single point]
CCc1ccccc1NC(=O)c1cccc(NC(=O)/C=C/c2ccco2)c1
  activation: inactive: -5.18%

Going on with the list:

| Compound | Potency | activation |
| --- | --- | --- |
| CC1(C)Cc2c(sc(NC(=O)c3ccc(S(=O)(=O)N4CCCCCC4)cc3)c2C(N)=O)C(C)(C)N1 | inconclusive: 0.501 µM [activator, full curve, poor fit] | – |
| CC(C)(C)c1ccc(-c2n[nH]c(=S)n2CC2CCCO2)cc1 (centres undefined) | – | inactive: -20.1% |
| Cc1cc(C)n(CC(O)COc2ccc(Cl)cc2Cl)n1 (centres undefined) | – | inactive: 37.9% |
| CCN(C(=O)c1ccc(S(=O)(=O)N(C)C)cc1)C(C)C(=O)Nc1ccc(C)cc1 (centres undefined) | inconclusive: 15.8 µM [activator, partial curve, poor fit] | – |
| CC(C)Cn1c(-c2cccnc2)nc2c1c(=O)[nH]c(=O)n2CC(C)C | inconclusive: 17.8 µM [activator, single point] | – |
| O=c1c(C(c2ccccc2)c2c(O)nc3n(c2=O)CCS3)c(O)nc2n1CCS2 | inconclusive: 5.01 µM [activator, single point] | – |
| CCOc1ccc(Nc2cc(C)nc3ccc(C)cc23)cc1 | inconclusive: 10 µM [activator, partial curve, poor fit] | – |
| CCCOc1ccc(-c2c(C(=O)N/N=C/c3ccsc3)nnn2-c2nonc2N)cc1 | inconclusive: 28.2 µM [activator, single point] | – |
| c1ccc(CCCCc2ccncc2)cc1 | – | inactive: 9.23% |
| Cc1nnc(SCC(=O)Nc2nccs2)o1 | – | inactive: 10.8% |
| CCNC(=O)c1ccc(NS(=O)(=O)c2ccc3[nH]c(=O)[nH]c3c2)cc1 | inconclusive: 4.47 µM [activator, single point] | – |
| CCOc1cc(S(=O)(=O)NCc2ccccc2)ccc1F | inconclusive: 25.1 µM [activator, partial curve, poor fit] | – |
| CC(C)N=c1scc(-c2ccco2)n1/N=C/c1ccc(O)c(O)c1 | inconclusive: 28.2 µM [activator, single point] | – |
| O=C(NCc1ccccc1)c1cnc2n(c1=O)CCS2 | – | inactive: -5.36% |
| COc1ccc(CCN2CC(C(=O)N(C)CCc3cn[nH]c3)CCC2=O)cc1 (centres undefined) | inconclusive: 28.2 µM [activator, single point] | – |
| COc1ccc(Cc2nc3ccc(C(=O)NCc4ncc(C)[nH]4)cc3o2)cc1OC | inconclusive: 3.98 µM [activator, single point] | – |
| Cc1cccc(NC(=O)Nc2cccnc2)c1C | inconclusive: 2.82 µM [activator, single point] | – |
| CCCCN(Cc1ccc(C(=O)N[C@H](C(=O)O)C(C)C)cc1)C(=O)C(c1ccccc1)c1ccccc1 | – | inactive: -16.6% |
| NC(=S)N/N=C1\c2ccccc2-c2c(C(=O)O)cccc21 | inconclusive: 5.01 µM [activator, single point] | – |
| O=C(c1cc(S(=O)(=O)N2CCC3(CC2)OCCO3)ccc1F)N1CCCCC1 | – | inactive: -9.64% |
| CCc1noc(C)c1C(=O)N(CC)CC(=O)Nc1cc(Cl)ccc1C | inconclusive: 2.24 µM [activator, full curve, poor fit] | – |
| CCOC(=O)c1c(C)[nH]c(C(=O)N2CCN(c3ccc(OC)cc3)CC2)c1C | inconclusive: 3.55 µM [activator, single point] | – |
| CC1C(=O)OC2C1CCC1(C)CCC(=O)C(C)C21 (centres undefined) | inconclusive: 7.94 µM [activator, partial curve, poor fit] | – |

At a glance, some entries already given.

| Compound | Potency | activation |
| --- | --- | --- |
| CCCOc1ccc(-c2c(C(=O)N/N=C/c3ccsc3)nnn2-c2nonc2N)cc1 | inconclusive: 28.2 µM [activator, single point] | – |
| c1ccc(CCCCc2ccncc2)cc1 | – | inactive: 9.23% |

The listing continues:

| Compound | Potency | activation |
| --- | --- | --- |
| C=C(C)C1CC=C(C)/C(=N/NC(=S)Nc2ccccc2)C1 (centres undefined) | – | inactive: 2.86% |
| COc1cc(-c2cc(C(=O)Nc3ccccc3N3CCOCC3)c3ccccc3n2)cc(OC)c1OC | inconclusive: 20 µM [activator, single point] | – |
| Cc1ccc2nc(SCC(=O)N3CCN(C(=O)c4ccco4)CC3)[nH]c2c1 | inconclusive: 3.16 µM [activator, partial curve, poor fit] | – |
| Cc1ccnc(NS(=O)(=O)c2ccc(NC(=O)c3ccc(S(=O)(=O)N4CCOCC4)cc3)cc2)n1 | inconclusive: 5.01 µM [activator, single point] | – |
| O=C1c2cccnc2C(=O)N1Cc1ccc(F)cc1S(=O)(=O)NCc1ccco1 | inconclusive: 28.2 µM [activator, single point] | – |
| COc1ccc(Nc2cc(C)nc3nc(C)nn23)cc1Cl | – | inactive: 0% |
| Cc1nc2nc(SCC(N)=O)[nH]c2cc1Br | – | inactive: 6.49% |
| O=C(Nc1ccc(Br)cc1C(=O)O)c1ccc2c(c1)C(=O)N(Cc1ccccc1)C2=O | – | inactive: -1.45% |
| CCOc1ccc(-c2cc(N)n(S(=O)(=O)c3cccc4nsnc34)n2)cc1 | inconclusive: 3.98 µM [activator, full curve] | – |
| Cc1cc(N2CCN(c3ccc([N+](=O)[O-])c4cccnc34)CC2)c2ccccc2n1 | – | inactive: -28.5% |
| Cc1ccc(NS(=O)(=O)c2ccc(Cl)s2)nc1 | inconclusive: 0.316 µM [activator, full curve, poor fit] | – |
| Cc1cc(N2CC(C)OC(C)C2)nc(C(C)C)n1 (centres undefined) | inconclusive: 28.2 µM [activator, single point] | – |
| CC1CCCCC1NC(=O)c1ccncc1 (centres undefined) | inconclusive: 2.82 µM [activator, single point] | – |
| Cc1ccc(NC(=S)N(C)C)cc1C | – | inactive: -33.3% |
| O=C(c1ccco1)N1N=C(c2ccco2)CC1c1ccc(Cl)cc1Cl (centres undefined) | – | inconclusive: -4.22% [activator] |
| CC(/C=C1\SC(=S)N(CCC(=O)Nc2ccc(O)cc2)C1=O)=C\c1ccccc1 | inconclusive: 2 µM [activator, partial curve, poor fit] | – |
| CC(=O)NC(c1ccccc1)c1cccnc1 (centres undefined) | inconclusive: 2 µM [activator, partial curve, poor fit] | – |
| CN(c1ccc(C(=O)Nc2cccnc2)cc1)S(C)(=O)=O | – | inconclusive: 13% [activator] |
| Cc1ccc(-n2c(C)n[nH]c2=S)cc1 | inconclusive: 3.98 µM [activator, partial curve, poor fit] | – |
| Cc1ccc(S(=O)(=O)NC2CCCCCC2)cc1C(N)=O | inconclusive: 2.51 µM [activator, single point] | – |
| CC(=O)c1ccc(NC(=O)C2CC(=O)N(C(C)C)C2)cc1 (centres undefined) | inconclusive: 2.82 µM [activator, partial curve, poor fit] | – |
| CC(=O)c1cnc2n(c1=O)CCS2 | inconclusive: 4.47 µM [activator, single point] | – |
| CN(C)C(=O)CSc1cnc2ccccc2n1 | inconclusive: 10 µM [activator, single point] | – |
